We go through two compounds from patent US7398119B2, “Assessing blood brain barrier dynamics or identifying or measuring selected substances, including ethanol or toxins, in a subject by analyzing Raman spectrum signals” (Childrens Hospital Los Angeles, priority 1998, dated 2008).

This data set in a line: Resonant Raman (RR) spectroscopy detection at 406.7 nm excitation.

On to `C[C@@H]1[C@H](O)[C@@H](C)/C=C/C=C/C=C/C=C/C=C/C=C/C=C/[C@H](O[C@@H]2O[C@H](C)[C@@H](O)[C@H](N)[C@@H]2O)C[C@@H]2O[C@](O)(C[C@@H](O)C[C@@H](O)[C@H](O)CC[C@@H](O)C[C@@H](O)CC(=O)O[C@H]1C)C[C@H](O)[C@H]2C(=O)O` [amphotericin, amphotericin B], for which the “lowest concentration at which characteristic peaks can be detected” value (in MeOH, excitation 406 nm) is 0.05 micrograms/ml.
`CC1=C(/C=C/C(C)=C/C=C/C(C)=C/C(=O)Nc2ccc(O)cc2)C(C)(C)CCC1` [fenretinide]: the “lowest concentration at which the peaks 1171/cm and 1576/cm can be detected” value (in ethanol, excitation about 406.7 nm) amounted to 0.1 µmol.
